In brackets after ≈: the same amount, converted by molar mass.
Assays:
[1] = tested on: Staphylococcus aureus ATCC 6538P; assay: Antibacterial MIC, broth micro-dilution, S. aureus; type: cell-based; conditions: ampicillin standard, 24 h at 37 °C
Procedure: (§1) In vitro antibacterial activity of all fractions was assessed against gram-positive and negative bacteria (Staphylococcus aureus ATCC 6538P and Escherichia coli ATCC 8739). Minimum inhibitory concentration (MIC) was determined by broth micro-dilution method. Serial dilutions of fractions and antimicrobial agents were prepared in 96-well plates by using (Mueller-Hinton Broth) MHB, and was made in a concentration ranging from 0.125 to 64 mg/mL Mueller-Hinton Broth (MHB) medium. The standard saline solution was prepared to get inoculants turbidity solution equal to 0.5 McFarland standards. The inoculants of the microbial strains were prepared from 20 h bacterial culture that were adjusted to 0.5 McFarland standard turbidity and were further diluted (1:100) using MHB medium just before adding to the serially diluted samples. The plates were incubated for 24 h at 37 °C and MIC values were recorded as the lowest concentrations which could inhibit visible growth of microorganisms. Each experiment was done in triplicate. The ampicillin was used as the standard antibacterial agent.

[2] = tested on: Escherichia coli ATCC 8739; assay: Antibacterial MIC, broth micro-dilution, E. coli; type: cell-based; conditions: ATCC8739, ampicillin standard, 24 h at 37 °C
Procedure: as §1

CC1(C)S[C@@H]2[C@H](NC(=O)[C@H](N)c3ccccc3)C(=O)N2[C@H]1C(=O)O [Ampicillin]
MIC ([1]; Staphylococcus aureus, ATCC6538P): 0.5 µg/mL (≈ 1.43 µM) | MIC S. aureus [1]: 0.50 µg/mL (≈ 1.43 µM) | MIC [2]: 0.12 µg/mL (≈ 0.343 µM)

From paper PMC7814726, “Phytochemical constituents and biological activities of Salvia macrosiphon Boiss” (BMC Chemistry, 2021)
